{"source": "the supplement of paper PMC10849652", "note": "The list shows a part of the results.", "data": [{"compound": "C1=CC=C(C=C1)[C@H](COC2=CC3=C(C=C2)NC(=O)N3)NC(=O)C4=CC=CN(C4=O)CC5=CC(=C(C=C5)F)F", "assay": "log2 fold change, soluble protein after heating vs DMSO (PISA); higher = thermal stabilisation; K562 cells, 10 uM, 30 min; active = over 0.2 and 3.5 SD of the protein, either way, in both replicates (recomputed)", "in_short": "(§1)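 K562 cells at 2×10^6 cells/mL were exposed to 10 μM compound for 30 min, then aliquots were heated for 3 min across 48°C-58°C, pooled, and extracted in PBS containing 0.5% NP-40 at 4°C. The supernatant after 21,000xg for 90 min was taken as soluble protein and measured by TMTpro 16plex LC-MS/MS with channel sums equalised. Thermal stability is reported relative to control samples, with values from duplicates. Fold changes are given on a log2 scale.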", "values": [{"target": "GIGYF2 (UniProt Q6Y7W6)", "log2 fold change": "inactive: -0.006"}, {"target": "GPALPP1 (UniProt Q8IXQ4)", "log2 fold change": "inactive: 0.031"}, {"target": "GPN2 (UniProt Q9H9Y4)", "log2 fold change": "inactive: 0.061"}, {"target": "GNL3 (UniProt Q9BVP2)", "log2 fold change": "inactive: 0.101"}, {"target": "GLCCI1 (UniProt Q86VQ1)", "log2 fold change": "inactive: -0.088"}, {"target": "GPRIN1 (UniProt Q7Z2K8)", "log2 fold change": "inactive: 0.01"}, {"target": "GNB1 (UniProt P62873)", "log2 fold change": "inactive: 0.012"}, {"target": "GOLT1B (UniProt Q9Y3E0)", "log2 fold change": "inactive: -0.003"}, {"target": "GLUD1 (UniProt P00367)", "log2 fold change": "inactive: 0.046"}, {"target": "GPX4 (UniProt P36969)", "log2 fold change": "inactive: 0.029"}, {"target": "GRAMD1A (UniProt Q96CP6)", "log2 fold change": "inactive: -0.055"}, {"target": "GOLIM4 (UniProt O00461)", "log2 fold change": "inactive: 0.022"}, {"target": "GRB2 (UniProt P62993)", "log2 fold change": "inactive: -0.042"}, {"target": "GPHN isoform 2 (UniProt Q9NQX3)", "log2 fold change": "inactive: 0.009"}, {"target": "GMPPB isoform 2 (UniProt Q9Y5P6)", "log2 fold change": "inactive: 0.024"}, {"target": "GOT2 (UniProt P00505)", "log2 fold change": "inactive: 0.002"}, {"target": "GMPR (UniProt P36959)", "log2 fold change": "inactive: 0.027"}, {"target": "GMEB1 (UniProt Q9Y692)", "log2 fold change": "inactive: 0.02"}, {"target": "GOSR1 (UniProt O95249)", "log2 fold change": "inactive: -0.033"}, {"target": "GJA1 (UniProt P17302)", "log2 fold change": "inactive: 0.087"}, {"target": "GPATCH8 (UniProt Q9UKJ3)", "log2 fold change": "inactive: -0.05"}, {"target": "GPAT3 (UniProt Q53EU6)", "log2 fold change": "inactive: 0.086"}, {"target": "GOLIM4 (UniProt F8W785)", "log2 fold change": "inactive: 0.038"}, {"target": "GINM1 (UniProt Q9NU53)", "log2 fold change": "inactive: 0.117"}, {"target": "GNAI3 (UniProt P08754)", "log2 fold change": "inactive: -0.005"}, {"target": "GLYR1 (UniProt Q49A26)", "log2 fold change": "inactive: 0.147"}, {"target": "GID8 (UniProt Q9NWU2)", "log2 fold change": "inactive: 0.029"}, {"target": "GRIPAP1 (UniProt Q4V328)", "log2 fold change": "inactive: 0.006"}, {"target": "GMFB (UniProt P60983)", "log2 fold change": "inactive: 0.007"}, {"target": "GOLGB1 isoform 2 (UniProt Q14789)", "log2 fold change": "inactive: 0.045"}, {"target": "GIPC1 (UniProt O14908)", "log2 fold change": "inactive: -0.039"}, {"target": "GLRX2 isoform 2 (UniProt Q9NS18)", "log2 fold change": "inactive: -0.07"}, {"target": "GNB1L (UniProt Q9BYB4)", "log2 fold change": "inactive: 0.007"}, {"target": "GNA13 (UniProt Q14344)", "log2 fold change": "inactive: -0.02"}, {"target": "GRK2 (UniProt P25098)", "log2 fold change": "inactive: -0.001"}, {"target": "GPD1L (UniProt Q8N335)", "log2 fold change": "inactive: 0.016"}, {"target": "GPI (UniProt P06744)", "log2 fold change": "inactive: -0.008"}]}, {"compound": "CC1=C(SC2=C1C(=N[C@H](C3=NN=C(N32)C)CC(=O)N)C4=CC=C(C=C4)Cl)C", "assay": "log2 fold change, soluble protein after heating vs DMSO (PISA); higher = thermal stabilisation; K562 cells, 10 uM, 30 min; active = over 0.2 and 3.5 SD of the protein, either way, in both replicates (recomputed)", "in_short": "as §1", "values": [{"target": "GIGYF2 (UniProt Q6Y7W6)", "log2 fold change": "inactive: 0.057"}, {"target": "GPALPP1 (UniProt Q8IXQ4)", "log2 fold change": "inactive: 0.096"}, {"target": "GPN2 (UniProt Q9H9Y4)", "log2 fold change": "inactive: 0.034"}, {"target": "GNL3 (UniProt Q9BVP2)", "log2 fold change": "inactive: 0.112"}, {"target": "GLCCI1 (UniProt Q86VQ1)", "log2 fold change": "inactive: -0.041"}, {"target": "GPRIN1 (UniProt Q7Z2K8)", "log2 fold change": "inactive: -0.016"}, {"target": "GNB1 (UniProt P62873)", "log2 fold change": "inactive: 0.047"}, {"target": "GOLT1B (UniProt Q9Y3E0)", "log2 fold change": "inactive: -0.001"}, {"target": "GLUD1 (UniProt P00367)", "log2 fold change": "inactive: 0.065"}, {"target": "GPX4 (UniProt P36969)", "log2 fold change": "inactive: 0.001"}, {"target": "GOLIM4 (UniProt O00461)", "log2 fold change": "inactive: 0.01"}, {"target": "GRB2 (UniProt P62993)", "log2 fold change": "inactive: 0.04"}, {"target": "GPHN isoform 2 (UniProt Q9NQX3)", "log2 fold change": "inactive: 0.04"}, {"target": "GMPPB isoform 2 (UniProt Q9Y5P6)", "log2 fold change": "inactive: 0.049"}, {"target": "GOT2 (UniProt P00505)", "log2 fold change": "inactive: 0.008"}, {"target": "GMPR (UniProt P36959)", "log2 fold change": "inactive: 0.043"}, {"target": "GMEB1 (UniProt Q9Y692)", "log2 fold change": "inactive: 0.084"}, {"target": "GOSR1 (UniProt O95249)", "log2 fold change": "inactive: 0.003"}, {"target": "GPATCH8 (UniProt Q9UKJ3)", "log2 fold change": "inactive: 0.005"}, {"target": "GPAT3 (UniProt Q53EU6)", "log2 fold change": "inactive: -0.084"}, {"target": "GOLIM4 (UniProt F8W785)", "log2 fold change": "inactive: -0.111"}, {"target": "GNAI3 (UniProt P08754)", "log2 fold change": "inactive: 0.019"}, {"target": "GLYR1 (UniProt Q49A26)", "log2 fold change": "inactive: 0.054"}, {"target": "GID8 (UniProt Q9NWU2)", "log2 fold change": "inactive: 0.074"}, {"target": "GRIPAP1 (UniProt Q4V328)", "log2 fold change": "inactive: -0.044"}, {"target": "GMFB (UniProt P60983)", "log2 fold change": "inactive: 0.057"}, {"target": "GOLGB1 isoform 2 (UniProt Q14789)", "log2 fold change": "inactive: -0.024"}, {"target": "GIPC1 (UniProt O14908)", "log2 fold change": "inactive: 0.023"}, {"target": "GLRX2 isoform 2 (UniProt Q9NS18)", "log2 fold change": "inactive: -0.101"}, {"target": "GNB1L (UniProt Q9BYB4)", "log2 fold change": "inactive: 0.003"}, {"target": "GNA13 (UniProt Q14344)", "log2 fold change": "inactive: 0.035"}, {"target": "GRK2 (UniProt P25098)", "log2 fold change": "inactive: 0.023"}, {"target": "GPD1L (UniProt Q8N335)", "log2 fold change": "inactive: -0.002"}, {"target": "GPI (UniProt P06744)", "log2 fold change": "inactive: 0.008"}]}]}
